From paper PMC5386651 come the findings set out here.

By UniProt entry, the sequences of proteins in these tests, tags left out. Residues count along the entry.
UniProt O94925, residues 55-669: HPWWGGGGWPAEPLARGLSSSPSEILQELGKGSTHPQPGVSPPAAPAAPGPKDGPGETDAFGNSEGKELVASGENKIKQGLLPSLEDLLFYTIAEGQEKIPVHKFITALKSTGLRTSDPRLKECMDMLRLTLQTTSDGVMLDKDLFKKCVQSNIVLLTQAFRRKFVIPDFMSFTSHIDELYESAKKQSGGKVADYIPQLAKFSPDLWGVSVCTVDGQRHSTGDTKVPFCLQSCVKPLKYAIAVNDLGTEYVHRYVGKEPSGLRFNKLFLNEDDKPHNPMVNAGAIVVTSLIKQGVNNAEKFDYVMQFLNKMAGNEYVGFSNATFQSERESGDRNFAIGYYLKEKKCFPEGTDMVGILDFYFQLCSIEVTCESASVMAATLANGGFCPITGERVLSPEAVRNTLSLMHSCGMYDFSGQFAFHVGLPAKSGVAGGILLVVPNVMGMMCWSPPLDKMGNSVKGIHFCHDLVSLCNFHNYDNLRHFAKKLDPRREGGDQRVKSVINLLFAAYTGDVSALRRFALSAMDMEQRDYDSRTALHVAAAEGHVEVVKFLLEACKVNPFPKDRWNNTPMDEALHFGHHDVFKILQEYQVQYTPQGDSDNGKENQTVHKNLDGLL
UniProt Q9UM11: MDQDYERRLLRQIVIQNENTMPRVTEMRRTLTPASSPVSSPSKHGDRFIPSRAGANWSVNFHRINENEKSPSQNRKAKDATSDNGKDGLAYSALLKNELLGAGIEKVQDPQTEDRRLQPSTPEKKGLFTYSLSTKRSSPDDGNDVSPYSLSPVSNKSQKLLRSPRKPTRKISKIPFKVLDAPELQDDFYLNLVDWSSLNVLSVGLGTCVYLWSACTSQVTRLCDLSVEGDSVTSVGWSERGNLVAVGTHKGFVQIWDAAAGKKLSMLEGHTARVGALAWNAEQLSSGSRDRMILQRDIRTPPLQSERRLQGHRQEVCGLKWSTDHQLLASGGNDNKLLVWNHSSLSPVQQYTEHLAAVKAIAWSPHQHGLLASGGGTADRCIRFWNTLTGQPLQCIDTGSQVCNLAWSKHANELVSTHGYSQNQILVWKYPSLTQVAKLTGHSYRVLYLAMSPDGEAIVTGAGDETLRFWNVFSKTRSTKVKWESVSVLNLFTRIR

In the experiment the target is GLS1 (glutaminase) (human (endogenous in HCT116 and HT29)) (UniProt O94925). Briefly: co-IP; lysates (RIPA, 200 ug protein) of cells transfected with HA-CDH1 and treated with 10 umol/l selenite for 24 h or control; precipitated with GLS1 antibody, protein A + G agarose beads; blotted for HA.

Results are given in words; binding and its absence hold for the method and conditions named. In cells and extracts the contact can be indirect. Some results given as binding are weak or reduced against the parent protein; the word gives no strength.

HA-CDH1 (from UniProt Q9UM11 1-496): the binding entry is “binds”.
